From article doi:10.1101/265876
No constants are given. Whether binding was seen depends on the method and setting. In cells and extracts the contact can be indirect. A yes stands for co-enrichment or nearness to the bait. Other partners may have been found. Where a sequence is shown, tags or fusion partners need not be part of it.

T1: SPR-5 tagged with GFP and HA (spr-5::GFP::HA) (C. elegans) (UniProt Q9XWP6)
T1 sequence: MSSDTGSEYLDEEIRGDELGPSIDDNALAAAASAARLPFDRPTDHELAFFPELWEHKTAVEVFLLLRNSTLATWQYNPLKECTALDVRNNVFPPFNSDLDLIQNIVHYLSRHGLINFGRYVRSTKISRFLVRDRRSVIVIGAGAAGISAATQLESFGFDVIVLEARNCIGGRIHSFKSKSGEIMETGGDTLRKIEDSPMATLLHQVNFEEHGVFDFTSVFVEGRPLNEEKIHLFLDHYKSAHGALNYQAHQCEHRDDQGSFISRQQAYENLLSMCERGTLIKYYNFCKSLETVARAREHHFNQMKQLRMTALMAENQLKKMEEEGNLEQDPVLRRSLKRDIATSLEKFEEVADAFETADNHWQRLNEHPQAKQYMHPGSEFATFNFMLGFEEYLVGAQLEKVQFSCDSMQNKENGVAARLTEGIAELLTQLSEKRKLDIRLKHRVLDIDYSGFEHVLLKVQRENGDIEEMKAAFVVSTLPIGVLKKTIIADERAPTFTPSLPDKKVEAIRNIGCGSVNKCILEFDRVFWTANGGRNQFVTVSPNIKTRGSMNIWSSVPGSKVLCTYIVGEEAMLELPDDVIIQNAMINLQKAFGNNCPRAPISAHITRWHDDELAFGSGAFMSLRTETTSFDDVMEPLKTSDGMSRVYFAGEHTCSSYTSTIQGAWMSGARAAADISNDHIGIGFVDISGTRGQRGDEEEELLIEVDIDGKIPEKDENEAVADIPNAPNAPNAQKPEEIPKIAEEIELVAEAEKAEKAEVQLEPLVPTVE

B1: SPR-1, the ortholog of human co-repressor CoREST (protein, UniProt Q18919 1-558)
chain: MDLYDDDGESAQSEKVDVPSEESTIAGPETDIPAETIEENVPEVEENTLLEEDSLVDVDSPRPSQQRSKPSKSKRKRKRSSSGESSAAEPEIDAGAKVKGPLSNTNKEINVGTEFQAKIADLNLNDKACNEDRDDQDELIWNTPETIDDEKLEAFIRESSDRYLIPIDRALYILTINNFNFDSAIAEVARRNELKDVWTDQEITLFENCYQIFGKNFSQIRSALCHRSLQSIVQFYYESKKRVKYLNFVNSKCDDSSSSEETETPSPYPEAIFESMCDNCGEKAENMQINNAMNRPECRACLIYFNQTGVPRPTSLRLVLAERIRNQVSCPDNMKEYMKDFDKLSAQATGSTFQKRIIVKDQCVEYIIDVDKIPSSSCTENGNVGETSSPSAQKTEIQSESDGSGPLIWRHKKTVCMEEIEVLADDSRRKMFEACQHGSKVDIKLVASWKNDMTNLRKRVEQTYYDPDLNPTYLFSHDRVHYSQDWTQLERSQVIRCFNMYGAHFEHIADVIGTKTPDQVYQFYLENQKAIDAADEEFLADMKNPERLADMEEEEDSI
B2: RCOR-1, an ortholog of human REST co-repressors 2 and 3 (RCOR2 and RCOR3) (protein, UniProt Q95Y41 1-564)
chain: MDSYTSSDEDASRKENISDEGLNMLNASPEPMEEDDPEEQAEQEEETSRMARPIRSMRKRETTSGESMGDEDEDLEDEEDEDEEAEAREHHESGAHDTSFSNPLSNVDNLIHVGTEYQAIIQPTAEQLEKEPCRDQQIWAFPDEMNENRLTEYISEATGRYQLPIDRALFILNKQSNDFDAAMVQAMRRKEIHDDWTAEEISLFSTCFFHFGKRFKKIHAAMPQRSLSSIIQYYYNTKKVQNYKTMINVHLNETDTYDELFKEVNHLERVPSGYCENCNAKSDLLILNRVMSRHECKPCILYFRLMRVPRPASLRALTKRRQRVLCPEYMKIYVYGYLELMEPANGKAIKRLGIGKEKEEDDDIMVVDDCLLRKPSGPYIVEQSIEADPIDENTCRMTRCFDTPAALALIDNIKRKHHMCVPLVWRVKQTKCMEENEILNEEARQQMFRATMTYSRVPKGEIANWKKDMMALKGRFERFTPELDTTATNGNRSGKVRINYGWSPEEKKNAIRCFHWYKDNFELIAELMATKTVEQIKKFYMDNEKLILESIDTYRAELKSKLGK

target: T1, SPR-5 tagged with GFP and HA (spr-5::GFP::HA) (C. elegans); experiment: affinity purification with mass spectrometry

| binding | Molecule |
| --- | --- |
| binds | FNCM-1, the Fanconi anemia (FA) FANCM homolog in C. elegans (from UniProt P91352) |
| binds | B1 |
| binds | B2 |
